# Source: article PMC7819943, “Rice protein-binding microarrays: a tool to detect cis-acting elements near promoter regions in rice”
# This is one part of the list.
# Molecular target: T1, OsSMF1 (Oryza sativa, UniProt Q6ZLB0 1-436)
# T1 sequence: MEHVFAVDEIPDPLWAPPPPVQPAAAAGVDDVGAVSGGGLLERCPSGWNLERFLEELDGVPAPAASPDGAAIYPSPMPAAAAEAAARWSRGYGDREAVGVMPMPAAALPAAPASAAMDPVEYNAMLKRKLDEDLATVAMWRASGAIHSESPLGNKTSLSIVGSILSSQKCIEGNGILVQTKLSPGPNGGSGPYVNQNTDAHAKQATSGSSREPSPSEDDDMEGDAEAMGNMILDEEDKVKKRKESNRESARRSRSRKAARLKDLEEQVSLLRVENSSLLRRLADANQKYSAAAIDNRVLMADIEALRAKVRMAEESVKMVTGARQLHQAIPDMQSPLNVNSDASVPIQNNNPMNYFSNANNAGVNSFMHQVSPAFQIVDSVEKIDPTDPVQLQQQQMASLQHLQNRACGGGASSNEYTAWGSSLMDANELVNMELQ
# Experiment: protein-binding microarray (RPBM); PBS, 2% BSA, 51.3 ng/ul salmon testes DNA, 50 uM zinc acetate, 200 nM TF, 25 C, 1 h; high values mean tight binding
# Details: protein: recombinant; tags: N-terminal polyhistidine and DsRed monomer fusion (pET32a); chain copies: 2; label: CyDye5-dUTP incorporated in the synthesized complementary strand; 3' TTTTT single-stranded linker to array surface; dsDNA, one strand shown
# Method in brief: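 Using Ni–NTA, transcription factors fused N-terminally to polyhistidine and DsRed were purified after expression in E. coli BL21-CodonPlus. These were incubated at 200 nM with a blocked, double-stranded custom Agilent array for 1 h at 25 °C in a buffer containing 50 µM zinc acetate, and the array was washed. The binding signal is per-feature fluorescence intensity (arbitrary units) on an Axon 4000B scanner.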
row,Sequence,binding signal
1,ATGACGATGGTTAATCCAAATAACATATTGGCCCGGGTTCCGGAGTCACCTAGTGCAG,49900 fluorescence intensity (a.u.)
2,CAAACTCCTACCCAGGCAGATGACGCTCCATGGAGTCATGCGGAGTCACCTAGTGCAG,3280 fluorescence intensity (a.u.)
3,ACCGTTCCGTTTTCCGTGCGGGGAGATTGGGTTCCCATCCCGGAGTCACCTAGTGCAG,14400 fluorescence intensity (a.u.)
4,GTCGCCTGATAATAACATCTACGTGTTGTTGCCAGCTGATCGGAGTCACCTAGTGCAG,4710 fluorescence intensity (a.u.)
5,GATTTGGGATTTTGTTATAGCGAGCGGACTGTCATCAATACGGAGTCACCTAGTGCAG,3480 fluorescence intensity (a.u.)
6,GGTGCTAATTGCGCGGGCTACCCAGCTAGTTCGATTGAATCGGAGTCACCTAGTGCAG,33800 fluorescence intensity (a.u.)
7,TCTCCCCGTTTGCTACTCCGGCGCCGGCGAGGCCACCTCGCGGAGTCACCTAGTGCAG,3370 fluorescence intensity (a.u.)
8,TCTAACAATATTGTTCTGTGTCAACAAAGATCTTGTCACTCGGAGTCACCTAGTGCAG,4720 fluorescence intensity (a.u.)
9,TCGAGCCCCTCTCCCTCCGCGAGCCGTGTGCAGCGGGCGACGGAGTCACCTAGTGCAG,3430 fluorescence intensity (a.u.)
10,ATCTCAAATTCCAGACTTCCAGAGGCGAGCACAGGAGGAGCGGAGTCACCTAGTGCAG,15200 fluorescence intensity (a.u.)
11,CCCCGAGGGAGAGGAATATACCGCGTGTGTGCGCGTGTGTCGGAGTCACCTAGTGCAG,3300 fluorescence intensity (a.u.)
12,TATCTAACCATGACATAACTAAAGTGTGACTTAGCAAAATCGGAGTCACCTAGTGCAG,3560 fluorescence intensity (a.u.)
13,CACATTGACTCAGCTGCCACATCGGATAAAATTGCAGTCACGGAGTCACCTAGTGCAG,10400 fluorescence intensity (a.u.)
14,GCTTCCATATTACACTACATCTCTTCCCTTCAATTACCCCCGGAGTCACCTAGTGCAG,3350 fluorescence intensity (a.u.)
15,CGAGGAGAGAGAGGTTGCAAGCGAGGATAAAGCGCCCGCACGGAGTCACCTAGTGCAG,3160 fluorescence intensity (a.u.)
16,TTCTCCACATCACAATGATACTGAACGTCAGCACTAAGATCGGAGTCACCTAGTGCAG,6490 fluorescence intensity (a.u.)
17,AGATCCCGAATTCGTGCCACGTGATCTGCCGTCGTGTATTCGGAGTCACCTAGTGCAG,6050 fluorescence intensity (a.u.)
18,CGCCCGAGAGCGAACGGCCGTCTGCCACGTCATTTTCGCCCGGAGTCACCTAGTGCAG,38100 fluorescence intensity (a.u.)
19,TTTGTAAAATTTCAGTGACACGGCTACAAATAGACGCACTCGGAGTCACCTAGTGCAG,4580 fluorescence intensity (a.u.)
20,TCCCCACGCCGCGCCGCCCGCCTGACCTCAGCCACGCACACGGAGTCACCTAGTGCAG,3960 fluorescence intensity (a.u.)
21,TCCATTTTCTGTTTTGATCTCCGATATGATCCGATACATCCGGAGTCACCTAGTGCAG,3600 fluorescence intensity (a.u.)

# Reprinted at random: three records from the list.
row,Sequence,binding signal
18,CGCCCGAGAGCGAACGGCCGTCTGCCACGTCATTTTCGCCCGGAGTCACCTAGTGCAG,38100 fluorescence intensity (a.u.)
13,CACATTGACTCAGCTGCCACATCGGATAAAATTGCAGTCACGGAGTCACCTAGTGCAG,10400 fluorescence intensity (a.u.)
19,TTTGTAAAATTTCAGTGACACGGCTACAAATAGACGCACTCGGAGTCACCTAGTGCAG,4580 fluorescence intensity (a.u.)

# Further records follow:

row,Sequence,binding signal
1,TGGTAAGTGTCCGCGTGTATATACGAGCGTTTGTGTATCACGGAGTCACCTAGTGCAG,3660 fluorescence intensity (a.u.)
2,GAGTTTATTCATGAACTCTCTGTCGATTCTGATGGTGAATCGGAGTCACCTAGTGCAG,3680 fluorescence intensity (a.u.)
3,TCTCATCCTCATCCTCATCCTGCAACAACCGTATTATATACGGAGTCACCTAGTGCAG,15500 fluorescence intensity (a.u.)
4,TCCGGCGGAGGGGAGGCTGCCGTCACTCCCGCCTGGCTCGCGGAGTCACCTAGTGCAG,3350 fluorescence intensity (a.u.)
5,TACTCATAGGGGTAGCGCTTACGTGCGTGCGTTTAGGTTGCGGAGTCACCTAGTGCAG,5760 fluorescence intensity (a.u.)
6,ATCAACATCACCACAGTCCAGTCAAATTCAAATCCAGCCTCGGAGTCACCTAGTGCAG,3170 fluorescence intensity (a.u.)
7,TGCGGGGTTCTCACTCTGACCGTCTGACGTCACTCTGGAGCGGAGTCACCTAGTGCAG,17000 fluorescence intensity (a.u.)
8,GATCGAGCAGGAGCAGGTTGTTGGGTCGTCCACCTCACTCCGGAGTCACCTAGTGCAG,3630 fluorescence intensity (a.u.)
9,ATAAGGGCTTGTTCGATATTGCTTGTTCCCAAGCGGAACTCGGAGTCACCTAGTGCAG,3150 fluorescence intensity (a.u.)
10,CCTCCAATTTTCGAGCGTGGCCACGCGTATTTCAGTGGCTCGGAGTCACCTAGTGCAG,5210 fluorescence intensity (a.u.)
11,GCCGCCGCCGCCGTCTGCACCCGCGTCAGCGCTCCACAAACGGAGTCACCTAGTGCAG,3440 fluorescence intensity (a.u.)
12,AACTAGTAGCAATTTAGCATGACATGGTACTCGTCTACACCGGAGTCACCTAGTGCAG,20400 fluorescence intensity (a.u.)
13,GGCCCGTGGTTTGGGCCGGAAGGTGATGACGCCTCTGCCGCGGAGTCACCTAGTGCAG,4270 fluorescence intensity (a.u.)
14,AGTATTCCTGTGACACTGTCTTCAAATATTACGTCAGCGTCGGAGTCACCTAGTGCAG,16400 fluorescence intensity (a.u.)
15,TTTCTTCCATCCACGCGGCGGCTGTTTAACCCGTCGGCTCCGGAGTCACCTAGTGCAG,4600 fluorescence intensity (a.u.)
16,GTTAATTAATACTCTCCGTTTCATATTATAAGGCGTTTGACGGAGTCACCTAGTGCAG,26400 fluorescence intensity (a.u.)
17,AAGGACAACATCATCATCCATGACCATGCTGACAGCGCGCCGGAGTCACCTAGTGCAG,4810 fluorescence intensity (a.u.)
18,TGATTAATCCGTTATTACATGTTTCTTTCTTGTCGGCTACCGGAGTCACCTAGTGCAG,3500 fluorescence intensity (a.u.)
19,TACCTCGCATGCCACGCAGTCCCACGTACGCCTCTCGTGTCGGAGTCACCTAGTGCAG,11600 fluorescence intensity (a.u.)
20,AATTTTATGTCAGTCACAACTTACAACTTACGTAATTGTGCGGAGTCACCTAGTGCAG,3220 fluorescence intensity (a.u.)
21,GAGCGGTCGCCACGCCAGATTCTCTCTCTCTCTCTCTCCCCGGAGTCACCTAGTGCAG,8980 fluorescence intensity (a.u.)
